Laboratory results taken from article PMC11784366.
No constants are given. Whether binding was seen depends on the method and setting. Binding seen in cells or lysates may run through a third protein.

Sequences of proteins named here, by UniProt entry; tags and fusion partners are left off.
UniProt P03107: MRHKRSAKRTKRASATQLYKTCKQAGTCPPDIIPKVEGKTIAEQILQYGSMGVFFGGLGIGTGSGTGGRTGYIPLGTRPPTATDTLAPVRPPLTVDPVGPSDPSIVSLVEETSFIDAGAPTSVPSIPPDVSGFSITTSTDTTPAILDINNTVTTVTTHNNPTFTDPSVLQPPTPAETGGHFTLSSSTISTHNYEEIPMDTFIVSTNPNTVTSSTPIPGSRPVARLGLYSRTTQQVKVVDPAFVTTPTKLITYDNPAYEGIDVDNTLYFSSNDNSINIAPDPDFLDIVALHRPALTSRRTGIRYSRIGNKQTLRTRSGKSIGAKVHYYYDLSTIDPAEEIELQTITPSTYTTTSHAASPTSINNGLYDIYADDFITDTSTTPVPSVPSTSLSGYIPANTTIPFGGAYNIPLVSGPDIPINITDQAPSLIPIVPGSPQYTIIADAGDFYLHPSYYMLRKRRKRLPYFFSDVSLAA
UniProt P52732: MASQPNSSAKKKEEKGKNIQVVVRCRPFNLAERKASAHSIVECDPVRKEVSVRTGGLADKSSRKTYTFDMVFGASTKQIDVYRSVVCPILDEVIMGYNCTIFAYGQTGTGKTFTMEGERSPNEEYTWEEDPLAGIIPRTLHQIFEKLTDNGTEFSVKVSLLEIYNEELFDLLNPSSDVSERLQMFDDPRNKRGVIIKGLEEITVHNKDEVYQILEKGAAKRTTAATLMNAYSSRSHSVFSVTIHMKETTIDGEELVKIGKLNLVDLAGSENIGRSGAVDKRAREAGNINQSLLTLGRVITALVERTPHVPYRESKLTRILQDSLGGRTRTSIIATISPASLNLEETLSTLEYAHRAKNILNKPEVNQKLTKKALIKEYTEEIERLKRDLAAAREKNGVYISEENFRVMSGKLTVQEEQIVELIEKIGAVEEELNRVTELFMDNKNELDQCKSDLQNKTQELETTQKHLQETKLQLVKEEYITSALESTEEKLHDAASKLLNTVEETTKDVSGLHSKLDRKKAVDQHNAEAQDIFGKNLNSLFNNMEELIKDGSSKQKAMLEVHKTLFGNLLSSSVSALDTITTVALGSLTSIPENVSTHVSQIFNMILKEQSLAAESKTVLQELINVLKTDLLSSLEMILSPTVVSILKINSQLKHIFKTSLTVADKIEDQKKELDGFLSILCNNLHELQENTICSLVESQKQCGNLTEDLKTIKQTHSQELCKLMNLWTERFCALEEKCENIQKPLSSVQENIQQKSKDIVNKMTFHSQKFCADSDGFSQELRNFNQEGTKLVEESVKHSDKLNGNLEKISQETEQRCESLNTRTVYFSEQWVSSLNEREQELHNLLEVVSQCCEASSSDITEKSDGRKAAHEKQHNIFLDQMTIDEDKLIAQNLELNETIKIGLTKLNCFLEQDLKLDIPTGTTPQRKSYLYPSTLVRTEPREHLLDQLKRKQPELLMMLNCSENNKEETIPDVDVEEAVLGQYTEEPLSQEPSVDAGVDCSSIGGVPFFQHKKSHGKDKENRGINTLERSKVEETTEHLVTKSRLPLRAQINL

Target: HA-tagged HPV16 L2 (HPV16) (UniProt P03107)
Assay: co-IP; lysates of transfected 293TT cells (1% NP-40 Tris-NaCl, pH 8.0) on anti-HA magnetic beads, 1 h at 4°C, washed 5x; blot with anti-FLAG and anti-HA; cells with or without Kif11 inhibitor (1.5 µM) 1 or 2 h before harvest

With “FLAG-tagged Kif11 (from UniProt P52732 1-1056)” the binding was “no binding”.
